Measured values taken from PubChem BioAssay AID1347076 (National Center for Advancing Translational Sciences (NCATS), 2019).
Out of some 400,000 compounds screened, about 13,000 (3.2%) were called active. The inconclusive results got no clear call from the source; some entries with a clear call stand among them for comparison. Calls follow the shape of the dose curve; as a rule, active = well fitted cell-killing curve with a large enough effect; inconclusive = small, poorly fitted or top-dose-only effect, or effect the other way; inactive = flat fitted curve, though single readings scatter. A potency beside an inconclusive call is a rough fit, not a confirmed value.

Test: qHTS assay for MDR1-selective chemotherapeutics: Primary screen using the drug-selected MDR subline cells KB-V1; also: nearly all actives have a fitted effect of over 60% in size
Conditions: KB-V1 MDR cells viability, CellTiter-Glo, 72 h; activity change, negative = cytotoxicity: at 46.1 µM (top of the series)
Outline: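 KB-V1 MDR subline cells in DMEM (phenol-red free, 10% FBS) exposed to compounds in qHTS concentration series for 72 h at 37 degrees C. Viability read by CellTiter-Glo luminescence; concentration-effect curves fitted after normalization and correction.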
% is scaled to controls: 0 for no effect and ±100 for the full control effect; potency is read from the fitted curve at half-maximal effect.

Row | Structure (SMILES) | Potency | activity change, negative = cytotoxicity
1 | Cn1cc(Cl)c(C(=O)Nc2nc3ccccc3s2)n1 | active: 18.4 µM | –
2 | CC(C)CN(CC(C)C)S(=O)(=O)N1CCC(C(=O)NCCN2CCOCC2)CC1 | inconclusive: 23.1 µM [cytotoxic, partial curve, poor fit] | –
3 | CCc1ccc(NC(=S)NC2CC3CCCC(C2)N3Cc2cccs2)cc1 (stereo not given) | active: 18.4 µM | –
4 | COc1cnn(-c2cccc(C)c2)c(=O)c1Cl | – | inactive: 23.5%
5 | Cc1ccccc1NS(=O)(=O)c1cc(C(=O)NCCSC2CCCCC2)ccc1C | inconclusive: 29.1 µM [cytotoxic, single point] | –
6 | CCN(C(=O)c1ccc(Cl)c([N+](=O)[O-])c1)c1ccccc1 | inconclusive: 18.4 µM [cytotoxic, single point] | –
7 | CN1CCN(S(=O)(=O)c2csc(C(N)=O)c2)CC1 | inconclusive: 29.1 µM [rising, single point] | –
8 | COc1nc(Nc2ccc(OC)c(Cl)c2)nc(OC)n1 | active: 18.4 µM | –
9 | COc1cc(C(=S)N2CCOCC2)cc(OC)c1OS(=O)(=O)c1ccc(Cl)cc1 | inconclusive: 1.84 µM [cytotoxic, full curve, poor fit] | –
10 | Cc1cccc(N2C(=O)C(O)=C(C(=O)c3cccs3)C2c2ccccc2)n1 (stereo not given) | inconclusive: 6.51 µM [cytotoxic, full curve, poor fit] | –
11 | COc1ccc(-n2c(C)cc(C(=O)COC(=O)Cc3n[nH]c(=O)c4ccccc34)c2C)cc1 | inconclusive: 23.1 µM [cytotoxic, partial curve, poor fit] | –
12 | Cc1ccccc1NS(=O)(=O)c1ccc(C(=O)NNC(=O)c2ccccc2O)cc1 | – | inactive: -17.9%
13 | Cc1ccc(OCc2cc(C(=O)N(C)C3CCCc4ccccc43)no2)cc1C (stereo not given) | inconclusive: 16.4 µM [cytotoxic, single point] | –
14 | Cc1cccc2nc(Cn3c(=O)n(CCCC(=O)NCc4ccco4)c(=O)c4ccccc43)cc(=O)n12 | inconclusive: 23.1 µM [cytotoxic, partial curve, poor fit] | –
15 | COc1ccc(S(=O)(=O)N2CCN(Cc3ccc4c(c3)OCO4)CC2)cc1C | inconclusive: 1.84 µM [rising, full curve, poor fit] | –
16 | O=C(Nc1nnc(C2CCCCC2)s1)c1ccco1 | inconclusive: 16.4 µM [cytotoxic, single point] | –
17 | O=C(COc1ccccc1)N=C1SC2CS(=O)(=O)CC2N1c1ccccc1F (stereo not given) | inconclusive: 9.2 µM [rising, partial curve, poor fit] | –
18 | COc1ccccc1/C=C/CN1CCC(n2nccc2NC(=O)C2CC2)CC1 | – | inactive: -1.11%
19 | CC(=O)N(C(C)=O)c1ncnc2c1c(-c1ccc(Cl)cc1)nn2C(C)(C)C | inconclusive: 29.1 µM [cytotoxic, single point] | –
20 | COc1cccc(-c2nnc(SCC(=O)Nc3cc(C)on3)n2C)c1 | – | inactive: 4.92%

Numbers 5 through 6 of the list above:
Row | Structure (SMILES) | Potency | activity change, negative = cytotoxicity
5 | Cc1ccccc1NS(=O)(=O)c1cc(C(=O)NCCSC2CCCCC2)ccc1C | inconclusive: 29.1 µM [cytotoxic, single point] | –
6 | CCN(C(=O)c1ccc(Cl)c([N+](=O)[O-])c1)c1ccccc1 | inconclusive: 18.4 µM [cytotoxic, single point] | –
